# Source: PubChem BioAssay AID2685 (National Center for Advancing Translational Sciences (NCATS), 2010)
# Some of the results follow. Further columns of the screen follow, without active or inactive calls. Compounds called inactive in the main read-out are mostly missing here. The note in brackets gives the kind of curve behind each potency; many fits are weak.
# Assay: qHTS Assay for Lipid Storage Modulators in Drosophila S3 Cells;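 for cell number change: cells counted by Cell Tracker Red CMTPX staining in the red channel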
# Conditions: BODIPY lipid droplet fluorescence, 18-24 h; for cell number change: measured here: cell count max response, cells fed with added oleic acid
# Method in brief: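 Drosophila S3 cells got compounds at several concentrations plus oleic acid (400 uM solution). Laser-scanning cytometry with 488 nm excitation read lipid droplets at 500-530 nm and cells at 575-640 nm. Percent activity was relative to 20 uM Triacsin C.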
# [1] = measured here: cell number channel AC50, cells fed with added oleic acid
# [2] = measured here: lipid fluorescence (Fed channel) AC50, cells fed with added oleic acid
Structure (SMILES),cell number change [%],AC50 [1],AC50 [2]
OCc1nnn(-c2cccc(C(F)(F)F)c2)c1CO,-25.9,–,–
Cc1ccc(Cn2c(=O)n(CCC(=O)NCc3ccc4c(c3)OCO4)c(=O)c3ccccc32)cc1,–,"1.3 µM [rising, partial curve]","0.82 µM [rising, full curve]"
CN(C)c1ccc(CN(CC2CCCO2)C(=O)c2cc3ccccc3o2)cc1 (configuration not stated),90.6,"29.1 µM [rising, single point]",–
O=C(Nc1cccc(C(=O)O)c1)/C(=C\c1ccccc1)NC(=O)c1ccccc1Cl,-18.7,–,"32.6 µM [falling, single point]"
Cc1cc(C)n(Cc2cc(C(=O)O)c3ccccc3n2)n1,-23.1,–,–
c1ccc(-c2ccc3c(c2)NC(C2Nc4cc(-c5ccccc5)ccc4O2)O3)cc1 (configuration not stated),5.02,–,–
Cc1cccc(-n2ccnc2CN2CCN(C(C)C)C(CCO)C2)c1 (configuration not stated),4.9,"0.00517 µM [rising, full curve, poor fit]",–
O=C1CCCCC1Sc1nnc(-c2ccc3c(c2)OCO3)o1 (configuration not stated),70.8,"25.9 µM [rising, single point]","23.1 µM [rising, single point]"
Cc1cc(C(=O)OCC(=O)N2CC(C)OC(C)C2)c(C)n1-c1ccccc1 (configuration not stated),1.07,–,"8.2 µM [rising, partial curve]"
CCOC(=O)c1c(C)oc2ccc(NS(=O)(=O)c3cccs3)cc12,-12.6,–,"1.46 µM [rising, partial curve]"
COc1ccc(OC)c(-c2nc3cc4ccccc4cc3nc2-c2ccccc2)c1,41.5,"0.92 µM [rising, full curve]","2.06 µM [rising, full curve]"
COC(=O)c1ccccc1NC(=S)N(Cc1ccc2c(c1)OCO2)Cc1cc2cc(OC)ccc2[nH]c1=O,19.7,–,"0.164 µM [rising, full curve]"
Cc1sc(NC(=O)c2ccco2)c(C(c2cccnc2)N2CCN(c3ccc(F)cc3)CC2)c1C (configuration not stated),–,"0.116 µM [rising, full curve]",–
CCc1cccc(NC(=S)N2CCC(c3ccccc3)C2)c1 (configuration not stated),-54.4,"13 µM [falling, partial curve]","18.4 µM [falling, partial curve]"
CCN(c1ccc(NC(=O)c2ccc(N3CCCC3=O)cc2)cc1)C(C)C,17.1,–,"11.6 µM [rising, partial curve, poor fit]"
CCOc1ccc(OCC(=O)OCC(=O)NNC(=O)c2ccc([N+](=O)[O-])cc2)cc1,11.2,–,"18.4 µM [falling, single point]"
Cc1ccc2nsnc2c1S(=O)(=O)N(CCO)Cc1cc2cc3c(cc2[nH]c1=O)OCCO3,-35.8,"5.8 µM [falling, full curve, poor fit]",–
Cc1ccc(C(=O)NC2CC(C)(C)NC(C)(C)C2)c(C)c1,-20.1,–,"0.000651 µM [falling, full curve, poor fit]"
CCN1CCN(c2ccc(S(=O)(=O)N3CCCCC3)cc2NC(=O)COc2cc(C)ccc2Cl)CC1,65.9,"23.1 µM [rising, single point]",–

Structure (SMILES),cell number change [%],AC50 [1],AC50 [2]
Cc1ccc(-n2cc(CNCCCn3ccnc3C)c(-c3ccc(F)cc3)n2)cc1,0.242,–,–
CCn1c(SCC(=O)N2CCCCC2C)nnc1-c1ccc(S(=O)(=O)N2CCN(C)CC2)cc1 (configuration not stated),3.72,–,"25.9 µM [falling, partial curve]"
CC(=O)Nc1ccc(C(=O)CN2C(=O)CSC2=O)cc1,5.21,–,–
CC1Sc2ccc(C(=O)N3CCCC(C(F)(F)F)C3)cc2NC1=O (configuration not stated),21.8,–,–
Cc1ccc(C)c(NC(=S)NCCSc2ccc(Cl)cc2)c1,1.87,–,"29.1 µM [falling, single point]"
O=C(CSc1nc2ccccc2c(=O)n1Cc1ccccc1)NCc1ccco1,-12.2,–,–
COc1ccc(NC(=O)c2c(SC)nsc2SC)cc1,62.7,"29.1 µM [rising, single point]","4.11 µM [rising, partial curve, poor fit]"
CC(C)Oc1ccc(CCC(=O)N/N=C/c2ccncc2)cc1,6.9,"4.61 µM [rising, single point]","2.91 µM [rising, full curve, poor fit]"
C=CCCC(=O)N1CCC(n2nccc2NC(=O)c2ccccc2C)CC1,-4.4,–,–
COc1ccc(N(CC(=O)N/N=C(\C)c2ccc(C)cc2)S(=O)(=O)c2ccccc2)cc1,15.4,–,"20.6 µM [rising, single point]"
S=c1[nH]nc(-c2cc(-c3ccccc3)n[nH]2)n1/N=C/c1cccs1,-38.6,"20.6 µM [falling, single point]","32.6 µM [falling, single point]"
CC1CCc2nc3ccc(S(=O)(=O)N4CCC(C(=O)N5CCCCC5)CC4)cc3c(C(=O)O)c2C1 (configuration not stated),24.4,–,–
Cc1cc(N2CCCCC2)nc(N2CCOCC2)n1,-26.7,"1.03 µM [falling, full curve]","23.1 µM [falling, partial curve]"
O=C(O)c1ccccc1Nc1ccccc1C(=O)O,8.05,–,–
CCN1C(=O)[C@@H]2[C@@H](c3ccc(-c4ccc(OC)cc4)c(OC)c3)N3CCC[C@@]3(C(=O)OC)[C@@H]2C1=O,8.78,"0.0058 µM [falling, full curve, poor fit]","0.00461 µM [falling, full curve, poor fit]"
CC(=O)OC1CCC(OC(C)=O)c2c1n([O-])c(C)c(C)[n+]2=O (configuration not stated),–,"1.84 µM [falling, single point]","0.116 µM [falling, full curve, poor fit]"
C=CCN(CC=C)CCOc1cc(C)ccc1[N+](=O)[O-],30.6,–,"13 µM [rising, partial curve]"
CCCCNc1nc(-c2ccccc2)nc(-n2ccnc2)n1,-17.8,"2.31 µM [falling, single point]","2.59 µM [falling, single point]"

# Compounds above that contain an NH in an aromatic ring:
Structure (SMILES),cell number change [%],AC50 [1],AC50 [2]
COC(=O)c1ccccc1NC(=S)N(Cc1ccc2c(c1)OCO2)Cc1cc2cc(OC)ccc2[nH]c1=O,19.7,–,"0.164 µM [rising, full curve]"
Cc1ccc2nsnc2c1S(=O)(=O)N(CCO)Cc1cc2cc3c(cc2[nH]c1=O)OCCO3,-35.8,"5.8 µM [falling, full curve, poor fit]",–
S=c1[nH]nc(-c2cc(-c3ccccc3)n[nH]2)n1/N=C/c1cccs1,-38.6,"20.6 µM [falling, single point]","32.6 µM [falling, single point]"
